These are yes or no findings as the source states them, for the method shown. Some results given as binding are weak or reduced against the parent protein; the word gives no strength.
Legend:
[1] = target: LCMV WE strain GP (LCMV, WE strain) (UniProt P07399); experiment: cross-reactivity, immunofluorescence on GP-transfected 293T cells
[2] = target: LCMV WE strain GP (LCMV, WE strain) (UniProt P07399); experiment: recognition of LCMV GPs, immunofluorescence
[3] = target: GP from Josiah strain of LASV (ELISA antigen) (Lassa virus, Josiah strain) (UniProt P08669); experiment: ELISA

Chains of the proteins cited; added tags and fusions are not shown. Residues count along the entry.
UniProt P07399, residues 2-498: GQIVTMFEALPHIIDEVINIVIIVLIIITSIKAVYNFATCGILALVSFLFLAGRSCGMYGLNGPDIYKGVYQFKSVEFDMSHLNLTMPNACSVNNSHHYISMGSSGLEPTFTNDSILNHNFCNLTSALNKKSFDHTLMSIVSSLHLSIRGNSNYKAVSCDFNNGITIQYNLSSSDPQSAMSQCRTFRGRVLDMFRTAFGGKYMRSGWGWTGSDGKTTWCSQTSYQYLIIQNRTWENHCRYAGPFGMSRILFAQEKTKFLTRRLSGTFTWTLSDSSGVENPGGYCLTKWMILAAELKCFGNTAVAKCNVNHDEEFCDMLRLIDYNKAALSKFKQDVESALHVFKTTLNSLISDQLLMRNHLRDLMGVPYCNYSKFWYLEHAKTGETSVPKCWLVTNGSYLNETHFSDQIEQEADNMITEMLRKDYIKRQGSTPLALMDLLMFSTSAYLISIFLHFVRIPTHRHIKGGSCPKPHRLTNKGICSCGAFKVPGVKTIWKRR
UniProt P08669, residues 59-424: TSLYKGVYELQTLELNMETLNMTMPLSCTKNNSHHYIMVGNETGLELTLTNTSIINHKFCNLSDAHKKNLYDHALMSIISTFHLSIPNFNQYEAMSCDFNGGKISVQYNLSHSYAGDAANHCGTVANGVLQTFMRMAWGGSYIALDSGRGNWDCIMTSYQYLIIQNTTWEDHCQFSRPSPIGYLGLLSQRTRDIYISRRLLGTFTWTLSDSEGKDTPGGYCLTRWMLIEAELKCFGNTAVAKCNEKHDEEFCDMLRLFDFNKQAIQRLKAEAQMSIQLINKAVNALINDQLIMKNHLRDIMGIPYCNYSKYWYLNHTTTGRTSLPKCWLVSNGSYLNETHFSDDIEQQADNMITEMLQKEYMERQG

Row | Binder | binding [1] | binding [2] | binding [3]
1 | 36.9F (antibody, V domains shown) VH: EVQLVQSGGGLVKAGGSLKLSCGASGFTFSSYSMSWVRQAPGKGLEWVSYISSGGSSIHYADSVKGRFTISRDNAKNSLYLQMKNLRVDDTGRYYCVRDPRSGISGRYGMDVWGQGTTVTVSS VL: DIVMTQSPDSLAVSLGERATINCKSSQTVLFTSYYVAWYQQKPGQPPKLLFSGASSRESGVPDRFSAGGSGTDFYLTINSLQAEDVADYYCQQYHTPPFTFGGGTKLEIRR | binds | binds | 
2 | 9.8A (antibody, V domains shown) VH: EVQLVQSGGRLVQPGGSLRLSCVASGFTFSSHAMSWVRQAPGKGLEWVSGFSGSSGTTKYADSVKGRFTISRDNSKKTLYLQMNSLRAEDTAVYYCAKGFSPFRGVQFPYFDYWGQGTLVTVSS VL: DIVMTQSPSTLSASVGDRVTITCRASQSIDRWLAWYQQKPGKAPKLLIYQASSLERGVPSRFSGSGSGTEFTLTISSLQPDDFATYYCQQYNGYPLTFGGGTKVEIKR | binds | binds | 
3 | 18.5C (antibody) VH: DEVQLVESGGGLVRPGGSLRLSCAAAGFTFKSYSMNWVRQAPGRGLEWVSSITSGGSKTYYADVVKGRFTVSRDNAKQSLYLQMNSLRAEDTAIYFCARSLHSTSQPSYMDVWGRKITVIVSSASTKGPSVFPLAPSSKSTSGGTAALGCLVKDYFPEPVTVSWNSGALTSGVHTFPAVLQSSGLYSLSSVVTVPSSSLGTQTYICNVNHKPSNTKVDKRVEPKSCDKTHTCPPCPAPELLGGPSVFLFPPKPKDTLMISRTPEVTC VL: DDIQMTQSPGTLSLSPGERATLSCRASQSVISYYVAWYQHKGGQAPRLLIYGASSRATGVPDRFSGSGSGTDFTLTISSLEPEDFALYYCQYYGSSPLWAFGQGTKVEIKRTVAAPSVFIFPPSDEQLKSGTASVVCLLNNFYPREAKVQWKVDNALQSGNSQESVTEQDSKDSTYSLSSTLTLSKADYEKHKVYACEVTHQGLSSPVTKSFNRGEC |  |  | binds

From patent publication US20200002405A1
